The text below walks through data of article PMC10889563, “The Multienzyme Complex Nature of Dehydroepiandrosterone Sulfate Biosynthesis” (International Journal of Molecular Sciences, 2024).

The target of assay [1] is T1, sulfotransferase SULT2A1 (human) (UniProt Q06520).
T1 sequence: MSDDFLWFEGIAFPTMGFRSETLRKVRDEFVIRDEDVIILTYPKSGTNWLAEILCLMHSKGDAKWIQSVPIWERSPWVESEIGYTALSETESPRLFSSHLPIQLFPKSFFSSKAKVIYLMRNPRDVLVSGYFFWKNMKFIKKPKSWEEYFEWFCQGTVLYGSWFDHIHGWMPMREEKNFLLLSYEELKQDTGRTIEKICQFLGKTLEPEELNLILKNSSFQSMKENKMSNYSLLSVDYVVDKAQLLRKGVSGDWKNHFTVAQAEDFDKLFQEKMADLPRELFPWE
The assay is described as follows: SPR; SULT1E1 or SULT2A1 covalently immobilised on CM5 chip via amino groups; CYP17A1full, CYP17A1tr or CYB5A injected at 50 to 5000 nM in HBS-EP+ (10 mM HEPES, 150 mM NaCl, 3 mM EDTA, 0.05% P20, pH 7.4), 25 °C; no PAPS; 1:1 Langmuir model; both purified. (In SPR one partner is held on a chip, and binding of the other changes the refractive index at the surface.)

The target of assay [2] is T2, sulfotransferase SULT1E1 (human) (UniProt P49888).
T2 sequence: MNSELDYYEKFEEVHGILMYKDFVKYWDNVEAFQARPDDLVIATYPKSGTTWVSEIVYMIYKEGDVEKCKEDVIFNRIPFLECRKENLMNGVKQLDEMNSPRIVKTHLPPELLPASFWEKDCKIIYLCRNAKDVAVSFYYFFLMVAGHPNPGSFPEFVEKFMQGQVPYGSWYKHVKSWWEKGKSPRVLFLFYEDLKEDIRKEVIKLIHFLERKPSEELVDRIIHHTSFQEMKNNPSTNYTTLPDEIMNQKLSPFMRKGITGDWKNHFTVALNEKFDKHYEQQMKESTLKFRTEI
Described as above.

These are yes or no findings as the source states them, for the method shown.

Regarding “N-terminal hydrophobic domain-truncated CYP17A1 (CYP17A1tr) (domain or fragment)”, the binding entry in assay [1] and in assay [2] was “no binding (tested: 50 to 5000 nM)” in each case.
